From article PMC12102395
Results are given in words; binding and its absence hold for the method and conditions named. Binding seen in cells or lysates may run through a third protein. These calls come from enrichment with a bait or labelling near it, and not all partners need be listed.

Sequences of proteins named here, by UniProt entry; tags and fusion partners are left off.
UniProt P19474: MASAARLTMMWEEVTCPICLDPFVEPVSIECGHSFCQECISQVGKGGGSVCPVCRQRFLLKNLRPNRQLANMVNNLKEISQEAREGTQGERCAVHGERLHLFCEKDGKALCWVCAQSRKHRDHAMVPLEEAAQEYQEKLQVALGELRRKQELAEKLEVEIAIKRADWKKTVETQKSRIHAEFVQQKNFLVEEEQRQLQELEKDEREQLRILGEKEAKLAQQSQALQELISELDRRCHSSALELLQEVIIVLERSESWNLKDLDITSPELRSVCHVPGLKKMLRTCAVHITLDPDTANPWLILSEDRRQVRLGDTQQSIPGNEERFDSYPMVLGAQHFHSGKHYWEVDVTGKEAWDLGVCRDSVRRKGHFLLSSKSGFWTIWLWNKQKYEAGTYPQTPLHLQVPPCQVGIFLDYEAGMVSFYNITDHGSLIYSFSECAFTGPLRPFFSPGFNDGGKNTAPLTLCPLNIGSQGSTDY

Target: T1, NBR1 (endogenous) (human (endogenous in DU145 and PC-3)) (UniProt Q14596)
T1 sequence: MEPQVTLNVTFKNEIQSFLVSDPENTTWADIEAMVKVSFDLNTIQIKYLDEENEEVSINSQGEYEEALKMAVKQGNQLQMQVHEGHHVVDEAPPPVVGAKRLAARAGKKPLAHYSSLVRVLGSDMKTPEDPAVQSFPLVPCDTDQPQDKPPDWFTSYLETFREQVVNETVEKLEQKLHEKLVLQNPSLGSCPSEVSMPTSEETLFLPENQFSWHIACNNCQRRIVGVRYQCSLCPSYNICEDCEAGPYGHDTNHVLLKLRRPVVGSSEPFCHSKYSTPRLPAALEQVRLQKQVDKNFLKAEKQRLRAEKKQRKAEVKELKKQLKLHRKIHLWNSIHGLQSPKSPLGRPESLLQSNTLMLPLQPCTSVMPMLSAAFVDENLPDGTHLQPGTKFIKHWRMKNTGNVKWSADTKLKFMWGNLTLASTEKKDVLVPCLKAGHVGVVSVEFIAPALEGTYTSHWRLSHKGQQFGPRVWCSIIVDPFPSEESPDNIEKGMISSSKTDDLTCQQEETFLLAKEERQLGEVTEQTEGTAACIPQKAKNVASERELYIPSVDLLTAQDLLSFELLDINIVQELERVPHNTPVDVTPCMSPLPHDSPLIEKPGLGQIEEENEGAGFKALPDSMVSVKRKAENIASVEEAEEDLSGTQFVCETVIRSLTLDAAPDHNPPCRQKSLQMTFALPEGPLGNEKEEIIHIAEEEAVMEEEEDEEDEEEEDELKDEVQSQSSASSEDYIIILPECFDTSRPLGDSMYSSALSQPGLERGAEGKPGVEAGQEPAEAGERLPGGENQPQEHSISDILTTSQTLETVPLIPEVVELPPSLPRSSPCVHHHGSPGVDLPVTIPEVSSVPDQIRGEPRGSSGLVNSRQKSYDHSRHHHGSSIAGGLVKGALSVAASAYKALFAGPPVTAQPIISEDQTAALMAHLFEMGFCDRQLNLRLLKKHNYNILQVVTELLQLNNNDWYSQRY
Assay: affinity purification with mass spectrometry; immunoprecipitation of NBR1, protein products analysed by mass spectrometry; cells not given

binding: binds
Substance: TRIM21 (from UniProt P19474 1-475) (enzyme)
